Paper PMC5343488, “Epilepsy and intellectual disability linked protein Shrm4 interaction with GABABRs shapes inhibitory neurotransmission” (Nature Communications, 2017)
Changes are numbered by the printed parent chain. No constants are given. Whether binding was seen depends on the method and setting. For part of these data: Binding calls can cover weak binding; strength is not graded here. For part of these data: Sequences can lack the tags named with a protein. For part of these data: In cells and extracts the contact can be indirect. One block for each substance: values may come before it.

Legend:
Shrm4-V5 (human) = molecular target: T1, Shrm4-V5 (human) (UniProt Q9ULL8); test: co-IP; lysates of transfected HEK293 cells; antibody to the tag of Shrm4 (HA, GFP, V5) at 4 °C overnight, protein A-agarose, western blot
T1 sequence: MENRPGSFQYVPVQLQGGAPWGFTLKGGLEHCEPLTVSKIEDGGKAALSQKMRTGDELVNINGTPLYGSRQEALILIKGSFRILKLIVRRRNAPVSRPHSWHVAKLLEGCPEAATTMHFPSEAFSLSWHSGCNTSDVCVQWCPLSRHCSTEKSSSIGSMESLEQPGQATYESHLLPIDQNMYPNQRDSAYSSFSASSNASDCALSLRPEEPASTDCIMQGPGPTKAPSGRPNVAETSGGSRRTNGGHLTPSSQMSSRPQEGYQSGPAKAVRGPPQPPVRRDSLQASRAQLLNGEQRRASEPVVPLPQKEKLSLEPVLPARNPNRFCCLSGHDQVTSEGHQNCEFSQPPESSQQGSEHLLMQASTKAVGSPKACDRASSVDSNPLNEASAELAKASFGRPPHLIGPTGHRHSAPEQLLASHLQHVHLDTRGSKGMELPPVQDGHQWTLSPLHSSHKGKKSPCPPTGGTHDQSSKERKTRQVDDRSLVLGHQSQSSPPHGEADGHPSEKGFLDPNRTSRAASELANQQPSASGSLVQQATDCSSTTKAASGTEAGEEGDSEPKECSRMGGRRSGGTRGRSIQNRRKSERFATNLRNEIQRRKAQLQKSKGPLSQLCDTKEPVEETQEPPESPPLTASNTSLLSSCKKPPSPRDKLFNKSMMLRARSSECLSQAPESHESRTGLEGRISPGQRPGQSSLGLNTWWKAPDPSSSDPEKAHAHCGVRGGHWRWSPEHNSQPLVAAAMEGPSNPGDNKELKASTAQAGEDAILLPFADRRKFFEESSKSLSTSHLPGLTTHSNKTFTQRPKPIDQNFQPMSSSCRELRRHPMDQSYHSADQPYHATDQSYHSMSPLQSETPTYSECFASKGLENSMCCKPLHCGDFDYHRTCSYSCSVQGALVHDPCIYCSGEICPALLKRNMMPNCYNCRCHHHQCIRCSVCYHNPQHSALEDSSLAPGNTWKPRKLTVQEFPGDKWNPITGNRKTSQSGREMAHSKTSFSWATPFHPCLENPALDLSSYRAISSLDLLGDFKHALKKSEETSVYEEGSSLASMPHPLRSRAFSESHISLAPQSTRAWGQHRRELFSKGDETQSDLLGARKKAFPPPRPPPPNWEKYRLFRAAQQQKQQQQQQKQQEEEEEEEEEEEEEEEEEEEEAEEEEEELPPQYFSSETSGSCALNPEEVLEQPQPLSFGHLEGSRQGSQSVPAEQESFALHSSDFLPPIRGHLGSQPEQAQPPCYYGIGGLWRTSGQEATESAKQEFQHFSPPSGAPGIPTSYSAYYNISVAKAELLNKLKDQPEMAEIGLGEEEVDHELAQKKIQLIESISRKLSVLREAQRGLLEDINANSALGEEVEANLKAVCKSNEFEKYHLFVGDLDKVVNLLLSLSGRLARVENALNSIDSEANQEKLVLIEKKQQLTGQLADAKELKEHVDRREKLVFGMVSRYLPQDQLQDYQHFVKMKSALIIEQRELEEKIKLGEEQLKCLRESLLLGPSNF

[1] = molecular target: T2, mutant GST-PDZ (AA) (Shrm4-PDZ domain K26G27/AA) (human) (UniProt Q9ULL8); test: pull-down; in vitro: purified His-tagged DIC incubated with GST-PDZ or mutant GST-PDZ (AA) for 3 h at room temperature, washed four times with PBS; western blot; both purified
T2 sequence: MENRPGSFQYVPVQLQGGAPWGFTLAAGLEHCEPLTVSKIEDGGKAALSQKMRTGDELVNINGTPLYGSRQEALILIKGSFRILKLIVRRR

[2] = molecular target: T3, GST-PDZ (Shrm4-PDZ domain, aa 1–91) (human, UniProt Q9ULL8 1-91); test: as above
T3 construct: Shrm4 (Shroom4), encoded by KIAA1202, PDZ domain, aa 1-91; in pGEX-4T-1, which should put GST at the N-terminus; source: E. coli BL21, purified using standard procedures
T3 sequence (looked up): T2 sequence with A26K, A27G

[3] = molecular target: T4, GST-PDZΔ14 (Shrm4-PDZ domain without its first 14 amino acids) (human) (UniProt Q9ULL8); test: pull-down; GST fusion proteins of the Shrm4-PDZ domain on extracts of 18DIV rat cultured hippocampal neurons or rat brain; western blot; only the target purified
T4 sequence: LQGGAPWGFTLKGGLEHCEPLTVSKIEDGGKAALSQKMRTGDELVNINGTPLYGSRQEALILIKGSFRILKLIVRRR

[4] = molecular target: T3, GST-PDZ (Shrm4-PDZ domain, aa 1–91); test: as above
[5] = molecular target: T5, Shrm4, endogenous in rat brain (rat (endogenous in brain)) (UniProt F1LVL5); test: co-IP; adult rat brain extracts (50 mM TRIS-HCl, 200 mM NaCl, 1 mM EDTA, 1% NP40, 1% Triton X-100, pH 7.4); antibody (anti-Shrm4 or anti-GABAAR δ) at 4 °C overnight, protein A-agarose, western blot
T5 sequence: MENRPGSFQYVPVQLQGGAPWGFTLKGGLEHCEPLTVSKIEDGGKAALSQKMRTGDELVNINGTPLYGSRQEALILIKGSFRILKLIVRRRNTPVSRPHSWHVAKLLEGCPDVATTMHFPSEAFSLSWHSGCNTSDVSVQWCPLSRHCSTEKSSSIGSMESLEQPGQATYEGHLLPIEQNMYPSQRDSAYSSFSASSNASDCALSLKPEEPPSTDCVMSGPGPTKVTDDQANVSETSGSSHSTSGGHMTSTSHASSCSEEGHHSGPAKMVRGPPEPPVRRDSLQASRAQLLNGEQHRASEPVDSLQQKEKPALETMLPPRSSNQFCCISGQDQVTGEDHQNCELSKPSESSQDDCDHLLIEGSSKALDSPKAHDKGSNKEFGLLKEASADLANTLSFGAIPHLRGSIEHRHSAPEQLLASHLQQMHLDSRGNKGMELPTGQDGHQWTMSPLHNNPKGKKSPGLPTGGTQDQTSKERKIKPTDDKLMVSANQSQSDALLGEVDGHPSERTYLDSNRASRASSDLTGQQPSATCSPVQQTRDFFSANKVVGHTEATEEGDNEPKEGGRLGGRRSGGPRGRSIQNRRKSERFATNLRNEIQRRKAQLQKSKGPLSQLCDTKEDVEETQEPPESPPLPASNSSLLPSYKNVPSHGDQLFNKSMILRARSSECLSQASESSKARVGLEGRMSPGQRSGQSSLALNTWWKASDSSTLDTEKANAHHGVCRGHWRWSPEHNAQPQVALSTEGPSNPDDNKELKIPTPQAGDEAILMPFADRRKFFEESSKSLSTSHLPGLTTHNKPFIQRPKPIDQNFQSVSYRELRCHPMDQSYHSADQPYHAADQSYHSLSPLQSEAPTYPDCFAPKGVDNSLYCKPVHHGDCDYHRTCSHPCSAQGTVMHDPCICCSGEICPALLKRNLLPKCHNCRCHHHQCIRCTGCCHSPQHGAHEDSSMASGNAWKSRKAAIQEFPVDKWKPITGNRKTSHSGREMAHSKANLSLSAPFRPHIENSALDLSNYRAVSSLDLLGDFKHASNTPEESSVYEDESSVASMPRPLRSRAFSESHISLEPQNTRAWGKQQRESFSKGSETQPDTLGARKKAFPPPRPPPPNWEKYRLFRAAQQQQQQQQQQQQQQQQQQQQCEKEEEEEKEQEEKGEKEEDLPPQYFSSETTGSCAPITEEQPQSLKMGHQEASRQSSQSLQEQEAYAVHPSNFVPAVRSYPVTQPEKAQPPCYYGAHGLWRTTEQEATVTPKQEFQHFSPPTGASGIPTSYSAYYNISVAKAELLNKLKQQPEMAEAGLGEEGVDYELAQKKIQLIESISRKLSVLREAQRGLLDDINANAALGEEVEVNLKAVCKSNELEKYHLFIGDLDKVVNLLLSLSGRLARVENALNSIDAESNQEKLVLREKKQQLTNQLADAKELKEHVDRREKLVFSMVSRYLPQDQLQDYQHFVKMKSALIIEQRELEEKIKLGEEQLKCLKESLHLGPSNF

binding (Shrm4-V5 (human)): binds
Substance: GABAB1b-myc (receptor)

binding [1]: binds
binding [2]: binds
Substance: His-tagged IC-2C (DIC)

binding [3]: no binding
binding [4]: binds
binding [5]: binds
Substance: dynein intermediate chain (DIC), endogenous in rat brain
